Data as given in PubChem BioAssay AID504804 (Drosophila RNAi Screening Center, 2011).
The deposit covers about 19,000 reagents; below is a random part of those with a known target gene and a result. In the full data, 47 (0.25%) are marked active. 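Signals are raw, not normalised; exact z-scores behind calls not deposited; actives needed confirmation, so some wells reaching 2 SD are inactive.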 Reagents against one gene are numbered here. A plus sign joins genes that one reagent is predicted to hit.

Screen: 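Fly genes whose loss lessens doxorubicin-driven cell death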 (primary screen)
Cell system: Drosophila Kc cells
Knock-down reagent: long dsRNA against Drosophila genes, 0.5 µg dsRNA per well
Duration: 96 h (48 h knock-down, then 48 h drug)
Treatment: doxorubicin 5 µg/ml for 48 h, added 48 h after dsRNA
Measured: 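Viability measured as cellular ATP by luminescence after 48 h knock-down then 48 h doxorubicin at 5 µg/ml; unnormalised plate counts for each replicate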
Scale: raw ATP luminescence: higher = more viable cells, protection from doxorubicin
Active means: 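z-score of 2 or more over plate mean in both duplicates, retained only when retests and separate dsRNAs confirm the protection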

gene knocked down | dsRNA no. | raw ATP luminescence, replicate 1 | raw ATP luminescence, replicate 2 | outcome
CG10317 (GeneID 41987) | 1 | 66570 | 62100 | inactive
CG42457 (retired record) + cpo | 1 | 1.71e5 | 1.77e5 | inactive
CG42457 (retired record) + cpo | 2 | 17300 | 15710 | inactive
CG42457 (retired record) + cpo | 3 | 15600 | 17590 | inactive
CG42457 (retired record) + cpo | 4 | 16440 | 18150 | inactive
Obp58b (GeneID 37607) | 1 | 48610 | 51417 | inactive
pps (GeneID 41524) | 1 | 44960 | 44957 | inactive
shf (GeneID 31617) | 1 | 43460 | 47260 | inactive
Acp76A (GeneID 40078) | 1 | 66333 | 55550 | inactive
CG1233 (GeneID 38063) | 1 | 64903 | 66707 | inactive
sfl (GeneID 38736) | 1 | 1.35e5 | 1.25e5 | inactive
sfl (GeneID 38736) | 2 | 1.60e5 | 1.67e5 | inactive
CG3348 (GeneID 50082) | 1 | 51980 | 42190 | inactive
Art1 (GeneID 41295) | 1 | 51367 | 21090 | inactive
Uch-L5R (GeneID 32173) | 1 | 2.96e5 | 2.83e5 | inactive
Pig1 (GeneID 31303) | 1 | 26790 | 40060 | inactive
ball (GeneID 43228) | 1 | 49300 | 39530 | inactive
Spred (GeneID 36643) | 1 | 67487 | 51017 | inactive
l(3)neo43 (GeneID 41851) | 1 | 85720 | 70950 | inactive
Ge-1 (GeneID 34541) | 1 | 65767 | 76403 | inactive
dve (GeneID 37546) | 1 | 39297 | 56070 | inactive
CG8248 (GeneID 35888) | 1 | 62300 | 60493 | inactive
CG11168 (GeneID 42981) | 1 | 36533 | 36023 | inactive
Ufd1 (GeneID 39254) | 1 | 38197 | 38463 | inactive
CG11362 (GeneID 37574) | 1 | 45213 | 52107 | inactive
Golgin104 (GeneID 39810) | 1 | 26890 | 19273 | inactive
Klf15 (GeneID 31410) | 1 | 39230 | 40100 | inactive
CG1552 (GeneID 32035) | 1 | 3.41e5 | 3.41e5 | inactive
l(3)psg2 (GeneID 38630) | 1 | 49830 | 62407 | inactive
Desat2 (GeneID 41536) | 1 | 61817 | 59537 | inactive
CG17192 (GeneID 43248) | 1 | 78170 | 70530 | inactive
CG3788 (GeneID 37644) | 1 | 42283 | 49953 | inactive
AP-1sigma (GeneID 42835) | 1 | 44513 | 50723 | inactive
CG9632 (GeneID 41926) | 1 | 84540 | 86700 | inactive
Sirt2 (GeneID 42414) | 1 | 51490 | 53580 | inactive
CR31824 (GeneID 10178848) | 1 | 2.26e5 | 2.05e5 | inactive
Amy-d + Amy-p | 1 | 3.18e5 | 3.10e5 | inactive
Zip88E (GeneID 41847) | 1 | 95830 | 1.21e5 | inactive
CG9304 (GeneID 37500) | 1 | 51337 | 60023 | inactive
CG14196 (GeneID 32915) | 1 | 3.63e5 | 3.50e5 | inactive
CG33296 (GeneID 2768941) | 1 | 2.81e5 | 2.99e5 | inactive
CG8319 (GeneID 41165) | 1 | 52130 | 55237 | inactive
sPLA2 (GeneID 35665) | 1 | 45083 | 67727 | inactive
Rpp14b (GeneID 43578) | 1 | 64780 | 63520 | inactive
CG34214 (GeneID 5740774) | 1 | 62690 | 53370 | inactive
CG14298 (GeneID 42259) | 1 | 26090 | 16560 | inactive
CG10589 (GeneID 40313) | 1 | 57210 | 58157 | inactive
CG17300 (GeneID 39489) | 1 | 81550 | 1.42e5 | inactive
RpL34b (GeneID 41120) | 1 | 50203 | 41507 | inactive
PolH (GeneID 40438) | 1 | 21020 | 19123 | inactive
CG34256 (GeneID 5740297) | 1 | 57523 | 54190 | inactive
Fmo-2 (GeneID 35561) | 1 | 59013 | 55570 | inactive
CG42361 (GeneID 37936) | 1 | 39453 | 41950 | inactive
CG2991 (GeneID 33488) | 1 | 1.18e5 | 82317 | inactive
trn (GeneID 39491) | 1 | 72120 | 70497 | inactive
CG14294 (GeneID 42262) | 1 | 43720 | 31530 | inactive
CG14277 (GeneID 34129) | 1 | 54820 | 85447 | inactive
scny (GeneID 38648) | 1 | 48293 | 70967 | inactive
scny (GeneID 38648) | 2 | 65367 | 64780 | inactive
CG33125 (GeneID 318892) | 1 | 2.74e5 | 3.20e5 | inactive
CG17751 (GeneID 42336) | 1 | 51040 | 59700 | inactive
PCB (GeneID 36020) | 1 | 66273 | 53480 | inactive
CanA-14F (GeneID 8674098) | 1 | 2.52e5 | 2.37e5 | inactive
CG12535 (GeneID 31311) | 1 | 58390 | 60730 | inactive
CG14866 (GeneID 41854) | 1 | 90460 | 93670 | inactive
dmGlut (GeneID 47253) | 1 | 82850 | 73160 | inactive
CG18765 (GeneID 59149) | 1 | 57783 | 49210 | inactive
Kat60 (GeneID 53566) | 1 | 65160 | 70927 | inactive
CG33500 (GeneID 2768957) | 1 | 1.42e5 | 1.39e5 | inactive
nvy (GeneID 37886) | 1 | 59407 | 63827 | inactive
Nbr (GeneID 35385) | 1 | 71600 | 57950 | inactive
Dpck (GeneID 40846) | 1 | 49777 | 62913 | inactive
Spase22-23 (GeneID 42885) | 1 | 64280 | 84810 | inactive
Asph (GeneID 36778) | 1 | 49423 | 69343 | inactive
CG9270 (GeneID 35366) | 1 | 55103 | 51927 | inactive
CG11927 (GeneID 33687) | 1 | 1.06e5 | 79633 | inactive
Dbp21E2 (GeneID 33254) | 1 | 1.04e5 | 66923 | inactive
TfIIB (GeneID 34430) | 1 | 24893 | 35353 | inactive
CG11147 (GeneID 33803) | 1 | 40220 | 39350 | inactive
drongo (GeneID 33263) | 1 | 1.13e5 | 57463 | inactive
Mtch (GeneID 38026) | 1 | 54020 | 56497 | inactive
Dp (GeneID 36461) | 1 | 49467 | 38450 | inactive
l(3)72Dp (GeneID 317887) | 1 | 36800 | 36827 | inactive
CG9014 (GeneID 34777) | 1 | 72950 | 77477 | inactive

Records listed so far whose target name begins with P or p (4):
gene knocked down | dsRNA no. | raw ATP luminescence, replicate 1 | raw ATP luminescence, replicate 2 | outcome
pps (GeneID 41524) | 1 | 44960 | 44957 | inactive
Pig1 (GeneID 31303) | 1 | 26790 | 40060 | inactive
PolH (GeneID 40438) | 1 | 21020 | 19123 | inactive
PCB (GeneID 36020) | 1 | 66273 | 53480 | inactive
